Reference: patent publication US10322191B2 (TARVEDA THERAPEUTICS, INC., priority 2014, dated 2019)

Test: general procedure: Fmoc solid-phase peptide synthesis; 2-chlorotrityl resin
Conditions: acetate salt (several conjugates)

Substance Lys-Boc octreotide acetate has a step yield (late stage modification step, run 1) of 67% yield and a step yield (late stage modification step, run 2) of 74% yield.

Work on “Lys-Boc octreotide 3-tritylmercaptopropionamide” yielded a step yield (late stage modification step) of 93% yield.

Lys-Fmoc octreotide showed a step yield (late stage modification step) of 71% yield.

In the case of “Lys-Fmoc octreotide hemiglutarate FMoc doxorubicin”, the conjugation yield (conjugation step) is reported as 96% yield.

Substance “BocHN-Cys(Trt)-[Lys(Boc)]4-octreotide(Lys-Boc)” has a step yield (coupling step) of 22% yield.
